According to article PMC9018856:
No constants are given. Whether binding was seen depends on the method and setting. In cells and extracts the contact can be indirect. Some binding calls cover weakened binding; strength is not graded here.

By UniProt entry, the sequences of proteins in these tests, tags left out.
UniProt Q9UHP3: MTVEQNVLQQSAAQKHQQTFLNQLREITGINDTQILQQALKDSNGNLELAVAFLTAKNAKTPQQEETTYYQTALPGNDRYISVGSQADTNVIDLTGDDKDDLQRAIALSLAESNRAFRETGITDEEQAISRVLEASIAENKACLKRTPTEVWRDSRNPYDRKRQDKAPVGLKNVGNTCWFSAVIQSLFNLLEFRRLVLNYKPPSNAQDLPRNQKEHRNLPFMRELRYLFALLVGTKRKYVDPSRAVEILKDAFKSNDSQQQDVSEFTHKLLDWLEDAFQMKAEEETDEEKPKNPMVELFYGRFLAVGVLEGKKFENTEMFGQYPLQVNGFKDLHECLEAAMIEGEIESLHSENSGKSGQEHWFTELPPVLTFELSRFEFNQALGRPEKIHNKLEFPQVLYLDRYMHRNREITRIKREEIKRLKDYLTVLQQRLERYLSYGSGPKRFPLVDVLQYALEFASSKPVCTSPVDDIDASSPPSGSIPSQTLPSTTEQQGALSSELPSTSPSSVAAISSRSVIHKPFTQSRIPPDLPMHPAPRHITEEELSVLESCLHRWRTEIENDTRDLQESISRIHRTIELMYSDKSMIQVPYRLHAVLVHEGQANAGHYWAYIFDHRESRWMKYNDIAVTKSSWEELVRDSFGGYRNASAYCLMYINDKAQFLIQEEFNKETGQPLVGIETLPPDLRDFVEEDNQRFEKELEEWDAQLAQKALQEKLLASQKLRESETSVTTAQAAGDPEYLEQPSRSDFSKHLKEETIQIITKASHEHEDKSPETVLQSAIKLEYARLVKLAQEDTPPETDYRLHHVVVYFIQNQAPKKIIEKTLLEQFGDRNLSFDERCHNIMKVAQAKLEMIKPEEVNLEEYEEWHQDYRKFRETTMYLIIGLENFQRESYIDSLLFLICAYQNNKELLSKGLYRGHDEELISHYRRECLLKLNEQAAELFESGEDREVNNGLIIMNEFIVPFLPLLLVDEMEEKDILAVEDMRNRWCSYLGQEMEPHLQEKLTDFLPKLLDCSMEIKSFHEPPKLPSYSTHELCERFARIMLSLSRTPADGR
UniProt Q16665: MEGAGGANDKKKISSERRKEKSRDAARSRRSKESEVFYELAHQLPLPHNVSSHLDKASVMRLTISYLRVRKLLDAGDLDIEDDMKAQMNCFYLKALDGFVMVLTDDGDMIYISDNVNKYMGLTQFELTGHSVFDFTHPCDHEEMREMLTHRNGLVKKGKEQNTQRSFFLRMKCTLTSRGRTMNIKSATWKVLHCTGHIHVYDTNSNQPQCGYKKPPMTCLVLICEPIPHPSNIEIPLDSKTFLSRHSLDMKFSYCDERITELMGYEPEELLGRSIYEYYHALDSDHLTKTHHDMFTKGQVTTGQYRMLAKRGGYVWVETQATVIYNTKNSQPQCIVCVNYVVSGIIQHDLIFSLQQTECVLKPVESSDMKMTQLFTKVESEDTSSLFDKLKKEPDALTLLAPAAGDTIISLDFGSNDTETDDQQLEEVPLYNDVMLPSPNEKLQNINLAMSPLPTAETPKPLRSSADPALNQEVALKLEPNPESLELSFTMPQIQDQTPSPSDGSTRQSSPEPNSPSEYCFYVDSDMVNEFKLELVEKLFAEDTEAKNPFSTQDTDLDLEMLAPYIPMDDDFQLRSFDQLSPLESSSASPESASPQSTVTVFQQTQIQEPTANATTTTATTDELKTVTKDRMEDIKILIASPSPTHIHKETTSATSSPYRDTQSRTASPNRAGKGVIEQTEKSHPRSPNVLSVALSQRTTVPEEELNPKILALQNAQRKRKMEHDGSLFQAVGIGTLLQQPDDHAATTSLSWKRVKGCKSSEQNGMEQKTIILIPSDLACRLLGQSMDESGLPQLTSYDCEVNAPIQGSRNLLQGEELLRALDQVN

Key:
[1] = target: ectopically expressed USP25 (human) (UniProt Q9UHP3); test: co-IP; ectopically expressed HIF-1α and USP25 in HEK293T cells; normoxic and hypoxia-mimetic conditions (200 µM CoCl2 for 24 h); Cell Lysis Buffer (Cell Signaling), 1 mg/mL lysate, overnight at 4 °C; washes in 50 mM Tris pH 7.5, 150 mM NaCl, 1 mM EDTA, 1% Triton X-100, 5% glycerol
[2] = target: endogenous USP25 (human (endogenous in HEK293T)) (UniProt Q9UHP3); test: co-IP; endogenous proteins in HEK293T cells; lysate incubated overnight at 4 °C with 4 µg USP25 antibody (Abcam, ab187156) or rabbit IgG control, then sheep-anti-rabbit magnetic beads; immunoblot

Row | Substance | binding [1] | binding [2]
1 | ectopically expressed HIF-1α (from UniProt Q16665 1-826) | binds | 
2 | endogenous HIF-1α (from UniProt Q16665 1-826) |  | binds
